The test concerns the target T1, podocalyxin (PDX) (dog (endogenous in MDCK)) (UniProt Q52S86).
T1 sequence (chain, heavily glycosylated with both N- and O-linked glycans): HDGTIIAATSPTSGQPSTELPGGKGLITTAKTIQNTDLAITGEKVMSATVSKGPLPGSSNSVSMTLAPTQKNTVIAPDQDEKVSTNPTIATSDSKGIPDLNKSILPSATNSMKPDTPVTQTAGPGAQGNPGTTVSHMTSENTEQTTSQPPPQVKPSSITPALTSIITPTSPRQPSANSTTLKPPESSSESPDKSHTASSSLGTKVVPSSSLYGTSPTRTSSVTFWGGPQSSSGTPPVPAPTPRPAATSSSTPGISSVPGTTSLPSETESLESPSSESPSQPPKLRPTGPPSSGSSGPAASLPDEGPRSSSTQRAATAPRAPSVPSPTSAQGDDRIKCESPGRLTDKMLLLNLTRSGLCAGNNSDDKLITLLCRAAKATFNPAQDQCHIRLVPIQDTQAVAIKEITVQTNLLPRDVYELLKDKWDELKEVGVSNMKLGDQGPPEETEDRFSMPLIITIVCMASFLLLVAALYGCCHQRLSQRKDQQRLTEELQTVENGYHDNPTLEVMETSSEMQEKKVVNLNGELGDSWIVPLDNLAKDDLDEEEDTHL
Nature of the test: co-IP; polarized MDCK and MDCK-deltaTTL (TTL knockout) cells lysed in Mg2+ lysis buffer (pH 7.4; 100 mM NaCl; 20 mM Tris; 10 mM MgCl2; 5 mM EDTA; 2 mM DTT; 0.4% NP-40); anti-PDX antibodies/protein A-sepharose, 3 h at 4 °C; immunoblot with anti-ezrin; non-specific IgG beads as negative control.

Protein sequences, listed by entry. Tags and fused reporters are not part of them.
UniProt A0A8I3MKE1: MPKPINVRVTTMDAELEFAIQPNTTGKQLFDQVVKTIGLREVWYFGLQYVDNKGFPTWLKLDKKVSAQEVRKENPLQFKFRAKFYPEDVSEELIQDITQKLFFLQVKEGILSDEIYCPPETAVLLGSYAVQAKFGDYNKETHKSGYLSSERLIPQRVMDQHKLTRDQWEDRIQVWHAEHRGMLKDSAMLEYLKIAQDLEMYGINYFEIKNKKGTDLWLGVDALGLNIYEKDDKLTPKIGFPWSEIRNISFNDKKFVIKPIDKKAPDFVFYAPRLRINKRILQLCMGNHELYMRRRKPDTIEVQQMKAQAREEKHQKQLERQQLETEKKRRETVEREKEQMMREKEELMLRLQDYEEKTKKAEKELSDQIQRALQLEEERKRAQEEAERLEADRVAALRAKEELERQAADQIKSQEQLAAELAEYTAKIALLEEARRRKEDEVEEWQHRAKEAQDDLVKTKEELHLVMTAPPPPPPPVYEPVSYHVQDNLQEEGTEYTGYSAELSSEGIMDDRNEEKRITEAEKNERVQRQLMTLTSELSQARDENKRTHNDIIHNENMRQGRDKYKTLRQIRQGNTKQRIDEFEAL

Results are given in words; binding and its absence hold for the method and conditions named. Binding seen in cells or lysates may run through a third protein. Some entries that bind do so weakly or less than the wild type.

For ezrin (from UniProt A0A8I3MKE1 1-586), the binding entry was “binds”.
